Measurements reported in PubChem BioAssay AID743121 (NCATS, 2013)
Assay: 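Partners whose loss is lethal together with topoisomerase I blockade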 (primary screen). Cell system: MDA-MB-231 cells, a human breast cancer line. Reagent: single siRNA against human genes, 20 nM siRNA (0.8 pmol per well). Time to read-out: 120 h (drug added 48 h after transfection, read 72 h later). Challenge: camptothecin 20 nM (about EC30) for 72 h; vehicle 0.1% DMSO in parallel plates. Detection: 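CellTiter-Glo ATP signal, scaled to control siRNA as percent viability; sensitisation given as log2 of untreated divided by camptothecin-treated viability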. Scale: log2 vehicle/camptothecin viability: higher = stronger sensitisation to camptothecin; viability with camptothecin and viability without drug: higher = more viable cells. Active means: 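Each gene scored by redundant siRNA activity (RSA) over its individual siRNA ratios; a gene is called active at p < 0.001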.
The whole screen tested about 26,000 reagents; shown is a random part of them. 167 of all reagents (0.63%) count as active. 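Calls are per gene from RSA p-values that are not deposited; an individual active-marked siRNA can sensitise only weakly.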 The numbers tell different reagents against one gene apart. No sequences are given here.

no.	gene	reagent no.	log2 vehicle/camptothecin viability	viability with camptothecin (% of control)	viability without drug (% of control)	outcome
1	FGF2	1	-0.217	125	108	inactive
2	FGF2	2	-0.446	75.4	55.4	inactive
3	FGF2	3	-0.165	98.8	88.1	inactive
4	FGF2	4	0.0701	85.8	90	inactive
5	PGGT1B	1	-0.438	102	75.2	inactive
6	PGGT1B	2	-0.606	78.1	51.3	inactive
7	PGGT1B	3	-0.247	12.4	10.5	inactive
8	PGGT1B	4	-0.259	103	85.9	inactive
9	CTSW	1	0.278	48.2	58.5	inactive
10	CTSW	2	-0.258	80.9	67.7	inactive
11	CTSW	3	-0.352	76.7	60.1	inactive
12	GPR50	1	-0.13	91.6	83.7	inactive
13	GPR50	2	0.0394	84.4	86.8	inactive
14	GPR50	3	0.176	48.1	54.4	inactive
15	GPR50	4	-0.279	86.4	71.2	inactive
16	CD46	1	-0.0386	62.6	60.9	inactive
17	CD46	2	-0.151	63.3	57	inactive
18	CD46	3	-0.264	96.1	80	inactive
19	CD46	4	-0.303	26.4	21.4	inactive
20	SMAD2	1	-0.292	84.5	69	inactive
21	SMAD2	2	-0.302	52.7	42.7	inactive
22	SMAD2	3	-0.213	73.9	63.8	inactive
23	SMAD2	4	-0.245	61.3	51.7	inactive
24	GLUD1	1	-0.232	90.5	77	inactive
25	GLUD1	2	-0.134	97.5	88.8	inactive
26	PRKACA	1	0.0277	93.3	95.1	inactive
27	PRKACA	2	0.0834	73.1	77.4	inactive
28	PRKACA	3	0.0756	77.8	82	inactive
29	PRKACA	4	0.178	67.2	76	inactive
30	EZH2	1	-0.0661	102	97.3	inactive
31	EZH2	2	0.129	97.8	107	inactive
32	EZH2	3	0.0917	92.5	98.5	inactive
33	EZH2	4	0.596	39.2	59.3	inactive
34	HSD17B4	1	0.0926	75.2	80.2	inactive
35	HSD17B4	2	0.0539	80.2	83.3	inactive
36	HSD17B4	3	-0.374	70.3	54.3	inactive
37	HSD17B4	4	-0.122	96.9	89	inactive
38	KCNA1	1	-0.129	74.6	68.2	inactive
39	KCNA1	2	-0.0904	97.7	91.7	inactive
40	KCNA1	3	-0.621	101	65.4	inactive
41	KCNA1	4	0.0872	96.8	103	inactive
42	DICER1	1	-0.18	73.8	65.2	inactive
43	DICER1	2	0.129	91.7	100	inactive
44	DICER1	3	0.0489	85.7	88.7	inactive
45	DICER1	4	0.646	53.4	83.5	inactive
46	PSMD2	1	-0.515	59.2	41.4	inactive
47	PSMD2	2	-0.117	23.8	21.9	inactive
48	PSMD2	3	0.0835	31.7	33.6	inactive

Limited to “log2 vehicle/camptothecin viability” (6 entries from above):
GPR50 #3: 0.176
GPR50 #4: -0.279
CD46 #1: -0.0386
CD46 #2: -0.151
CD46 #3: -0.264
CD46 #4: -0.303
